The values that follow come from article PMC7943015.

No constants are given. Whether binding was seen depends on the method and setting. In cells and extracts the contact can be indirect. These calls come from enrichment with a bait or labelling near it, and not all partners need be listed.

The target in the assay is CgYps1 (C. glabrata (endogenous in derivatives of strain BG2)). Put plainly: affinity purification with mass spectrometry; CgYps1 immunoprecipitated with anti-CgYps1 polyclonal antibody on rProtein A-Sepharose from precleared extracts (2 mg) of log-phase wt and Cgyps1-11Δ cells, 2-3 h at 4°C, duplicates; hits: at least two unique peptides, in both wt replicates, absent from both Cgyps1-11Δ samples.

B1: CAGL0A00979g (ortholog of S. cerevisiae RPL38) (protein, UniProt Q6FXW9 1-78)
chain: MAREVTDIKQFLELTRRNDVQSATVKINKKLNKNGKQFRQTKFKVRGSRHLYTLTVNDAGKAKKLIQSLPPTLKVNKL
In the case of B1, the binding result is reported as “binds”.

B2: CAGL0I03916g (ortholog of S. cerevisiae ARF2) (protein, UniProt Q6FQS5 1-181)
chain: MGLFASKLFSNLFGNKEMRILMVGLDGAGKTTVLYKLKLGEVITTIPTIGFNVETVQYKNISFTVWDVGGQDRIRSLWRHYYRNTEGVIFVVDSNDRSRIGEAREVMQRMLNEDELRNAVWLVFANKQDLPEAMSAAEITEKLGLHSIRNRPWFIQATCATTGEGLYEGLEWLSNNLNNKE
Consider B2, for which the binding result was “binds”.
